Molecules are shown by their SMILES. Counter-ions that a name gives are not always drawn. Some of the results follow. Repeats are few or missing, and single values can be far off. Where a SMILES comes first, the peptide text is derived from it. [ ]: non-standard residue; d: D form. The star is where a group is joined. Sta = CC(C)C[C@H](N)[C@@H](O)CC(=O)O; Isovaleryl = CC(C)CC(=O)*

This test has as its system p95-ErbB2-MCF7. Nature of the test: perinuclear lysosome accumulation (PNLA, size of LAMP2 puncta), robust Z-score vs plate median; higher = more perinuclear lysosome accumulation (reversal of invasive lysosome distribution). As to conditions: 5 µM; 24 h.
For `CN(C)CCOC1=Cc2ccccc2Sc2ccc(Cl)cc21` [Zotepine], the perinuclear lysosome accumulation was -0.737. With `CCN(Cc1ccncc1)C(=O)C(CO)c1ccccc1` (centres undefined) [Tropicamide], the perinuclear lysosome accumulation turned out to be 0.147. The figure for `O=C(NCCNCC(O)COc1ccc(O)cc1)N1CCOCC1` (centres undefined) [Xamoterol hemifumarate] is -0.0805; for `CCN(CC)CC#CCOC(=O)C(O)(c1ccccc1)C1CCCCC1` (centres undefined) [Oxybutynin chloride] it is -0.717; for `Cc1ncc([N+](=O)[O-])n1CCO` [Metronidazole] it is 0.000761. With `OC(CCN1CCCCC1)(c1ccccc1)C1CC2C=CC1C2` (centres undefined) [Biperiden hydrochloride] the figure was -2.55; with `CN1C2CCCC1CC(NC(=O)c1nn(C)c3ccccc13)C2` (centres undefined) [Granisetron], 1.01. The figure for `CC(C)N1CCN(c2ccc(OCC3COC(Cn4cncn4)(c4ccc(Cl)cc4Cl)O3)cc2)CC1` (centres undefined) [Terconazole] is 3.2; for `O=C(CCCN1CC=C(n2c(=O)[nH]c3ccccc32)CC1)c1ccc(F)cc1` [Droperidol] it is -0.0633; for `CCN(CC)CCNC(=O)c1cc(S(C)(=O)=O)ccc1OC` [Tiapride hydrochloride] it is 2.52. With `C#CCN(C)Cc1ccccc1` [Pargyline hydrochloride], the perinuclear lysosome accumulation is -0.118. With `COc1ccc2cc(CCC(C)=O)ccc2c1` [Nabumetone] the figure was 0.175; with `CC(=O)N[C@@H](CC(=O)N[C@@H](CCC(=O)O)C(=O)O)C(=O)O` [Spaglumic acid], -1.8.

For `Cc1ccc(S(=O)(=O)NC(=O)NN2CC3CCCC3C2)cc1` (centres undefined) [Gliclazide], the perinuclear lysosome accumulation is 0.478. For the compound `COc1cc2nc(N3CCN(C(=O)c4ccco4)CC3)nc(N)c2cc1OC` [Prazosin hydrochloride], the perinuclear lysosome accumulation was found to be 0.118. Take `CCn1cc(C(=O)O)c(=O)c2cnc(N3CCNCC3)nc21` [Pipemidic acid]: the perinuclear lysosome accumulation stood at 0.41. The figure for `COc1nc(C)nc(Cl)c1NC1=NCCN1` [Moxonidine] is 0.183; for `Clc1ccc(C(Cn2ccnc2)OCc2c(Cl)cccc2Cl)c(Cl)c1` (centres undefined) [Isoconazole] it is -0.759; for `NC(=O)N1c2ccccc2C=Cc2ccccc21` [Carbamazepine] it is -0.0856. With `CN(C)CCN(Cc1cccs1)c1ccccn1` [Methapyrilene hydrochloride] the figure was -0.0761; with `COc1c(O[C@@H]2O[C@H](CO)[C@@H](O)[C@H](O)[C@H]2O)cc2c(c1OC)-c1ccc(SC)c(=O)cc1[C@@H](NC(C)=O)CC2` [Thiocolchicoside], -0.562. The figure for `O=C(Cn1ccnc1[N+](=O)[O-])NCCO` [Etanidazole] is 1.01. As to `CO[C@H]1/C=C/O[C@@]2(C)Oc3c(C)c(O)c4c(c3C2=O)C2=NC3(CCN(CC(C)C)CC3)NC2=C(NC(=O)/C(C)=C\C=C\[C@H](C)[C@H](O)[C@@H](C)[C@@H](O)[C@@H](C)[C@H](OC(C)=O)[C@@H]1C)C4=O` [Rifabutin], the perinuclear lysosome accumulation was 1.29. The figure for `Nc1nc(=S)c2ncn([C@@H]3O[C@H](CO)[C@@H](O)[C@H]3O)c2[nH]1` [Thioguanosine] is 0.896; for `CC(C)NCC(O)COc1ccc(COCCOC(C)C)cc1` (centres undefined) [Bisoprolol fumarate] it is -0.352.

`Nc1nc(=O)c2nc(CNc3ccc(C(=O)N[C@@H](CCC(=O)O)C(=O)O)cc3)cnc2[nH]1` [Folic acid]: the perinuclear lysosome accumulation came to 0.667.

As for `CC(=O)N[C@@H](CC(C)C)C(=O)O` [N-Acetyl-L-leucine], the perinuclear lysosome accumulation stood at 0.21.

In the case of `CC[C@H]1OC(=O)[C@H](C)[C@@H](O[C@H]2C[C@@](C)(OC)[C@@H](O)[C@H](C)O2)[C@H](C)[C@@H](O[C@@H]2O[C@H](C)C[C@H](N(C)C)[C@H]2O)[C@](C)(O)C[C@@H](C)/C(=N\OCOCCOC)[C@H](C)[C@@H](O)[C@]1(C)O` [Roxithromycin], the perinuclear lysosome accumulation amounted to 1.55. The figure for `Nc1nc(F)nc2c1ncn2[C@@H]1O[C@H](CO)[C@@H](O)[C@@H]1O` [Fludarabine] is 0.492; for `CCOC(=O)OC(C)OC(=O)[C@@H]1N2C(=O)[C@@H](NC(=O)[C@H](N)c3ccccc3)[C@H]2SC1(C)C` (some centres undefined) [Bacampicillin hydrochloride] it is 0.721.

With `CCOC(=O)[C@H](CCc1ccccc1)N[C@H]1CCc2ccccc2N(CC(=O)O)C1=O` [Benazepril HCl], the perinuclear lysosome accumulation was -0.000183. As to `COC1=C(OC)C(=O)C(CCCCCCCCCCO)=C(C)C1=O` [Idebenone], the perinuclear lysosome accumulation is -0.241. Consider `NCCCC[C@H](N[C@@H](CCc1ccccc1)C(=O)O)C(=O)N1CCC[C@H]1C(=O)O` [Lisinopril], for which the perinuclear lysosome accumulation is -2.12. The figure for `O=C(Nc1cccc2c(=O)cc(-c3nnn[nH]3)oc12)c1ccc(OCCCCc2ccccc2)cc1` [Pranlukast] is 1.25.

Consider `CC(C)(C)NC[C@H](O)COc1nsnc1N1CCOCC1` [Timolol maleate salt], for which the perinuclear lysosome accumulation was found to be 0.369. The figure for `Cc1scc2c1N(C(=O)CN1CCN(C)CC1)c1ccccc1NC2=O` [Telenzepine dihydrochloride] is -0.533; for `Cn1c(=O)c2nc[nH]c2n(C)c1=O` [Theophylline monohydrate] it is -0.475; for `c1ccc(C2CN3CCSC3=N2)cc1` (centres undefined) [Tetramisole hydrochloride] it is 1.14. Take `C=C1c2cccc(O)c2C(=O)C2=C(O)[C@]3(O)C(=O)C(C(N)=O)=C(O)[C@@H](N(C)C)[C@@H]3[C@@H](O)[C@H]12` [Methacycline hydrochloride]: the perinuclear lysosome accumulation was -0.153.

Take `CCCN[C@H]1CCc2nc(N)sc2C1` [Pramipexole]: the perinuclear lysosome accumulation was -0.407. With `CCOC(=O)c1ccc(OC(=O)CCCCCNC(=N)N)cc1` [Gabexate mesilate] the figure was -0.786.

Consider `Cc1cc(=O)oc2cc(O)ccc12` [Hymecromone], for which the perinuclear lysosome accumulation was -1.48. Consider `CCCNC(C)C(=O)Nc1ccccc1C` (centres undefined) [Prilocaine hydrochloride], for which the perinuclear lysosome accumulation is -0.0327. As for `COc1ccc(CN(CCN(C)C)c2ccccn2)cc1` [Pyrilamine maleate], the perinuclear lysosome accumulation is -0.792. The figure for `CC(COc1ccccc1)N(CCCl)Cc1ccccc1` (centres undefined) [Phenoxybenzamine hydrochloride] is 2.23; for `CCCCC[C@H](O)/C=C/[C@@H]1[C@@H](C/C=C\CCCC(=O)O)[C@@H](O)C[C@H]1O` [Dinoprost trometamol] it is -0.463; for `CC(=O)c1ccc(S(=O)(=O)NC(=O)NC2CCCCC2)cc1` [Acetohexamide] it is 1.52. With `O=C(O)/C=C/c1ccc(Cn2ccnc2)cc1` [Ozagrel hydrochloride] the figure was 0.757; with `CCCc1nc(C)c2c(=O)nc(-c3cc(S(=O)(=O)N4CCN(CC)CC4)ccc3OCC)[nH]n12` [Vardenafil], 0.161. `Cc1cc(/C=C/c2ccc3cc(N(C)C)ccc3[n+]2C)c(C)n1-c1ccccc1` [Pyrvinium pamoate]: the perinuclear lysosome accumulation was 5.89. The figure for `CCCCNc1ccc(C(=O)OCCOCCOCCOCCOCCOCCOCCOCCOCCOC)cc1` [Benzonatate] is -0.573; for `COCCOC(=O)C1=C(C)NC(C)=C(C(=O)OC/C=C/c2ccccc2)C1c1cccc([N+](=O)[O-])c1` (centres undefined) [Cilnidipine] it is 0.646; for `CN(C)CCOc1ccc(/C(=C(/CCCl)c2ccccc2)c2ccccc2)cc1` [Toremifene] it is -1.24. The figure for `CCN1CCN(C(=O)N[C@@H](C(=O)N[C@@H]2C(=O)N3C(C(=O)O)=C(CSc4nnnn4C)CS[C@H]23)c2ccc(O)cc2)C(=O)C1=O` [Cefoperazone dihydrate] is 0.123; for `O=C(NCCO[N+](=O)[O-])c1cccnc1` [Nicorandil] it is 1.1. The figure for `Cc1ccc(Cl)c(Nc2ccccc2C(=O)O)c1Cl` [Meclofenamic acid sodium salt monohydrate] is 0.181; for `C=C1/C(=C\C=C2/CCC[C@]3(C)[C@@H]([C@H](C)/C=C/[C@@H](O)C4CC4)CC[C@@H]23)C[C@@H](O)C[C@@H]1O` [Calcipotriene] it is 1.76; for `COC(=O)Nc1nc2ccc(SC(C)C)cc2[nH]1` [Methiazole] it is 0.454. In the case of `CC1=Nc2ccc(Cl)cc2S(=O)(=O)N1` [Diazoxide], the perinuclear lysosome accumulation is 0.0302. The figure for `CC(C(=O)O)c1ccc(N2Cc3ccccc3C2=O)cc1` (centres undefined) [Indoprofen] is -0.339; for `Oc1ccc(OCc2ccccc2)cc1` [Monobenzone] it is -0.646.

Take `C[C@H]1C[C@H]2[C@@H]3CCC4=CC(=O)C=C[C@]4(C)[C@@]3(F)[C@@H](O)C[C@]2(C)[C@@]1(O)C(=O)CO` [Betamethasone]: the perinuclear lysosome accumulation was -1.36. Turning to `Cc1nnc(NS(=O)(=O)c2ccc(N)cc2)s1` [Sulfamethizole], the perinuclear lysosome accumulation was 0.872. As for `CCN1CCC[C@H]1CNC(=O)c1c(OC)ccc(Br)c1OC` [Remoxipride Hydrochloride], the perinuclear lysosome accumulation is -2.73. The figure for `CC1CC(OC(=O)C(O)c2ccccc2)CC(C)(C)N1C` (centres undefined) [Eucatropine hydrochloride] is 0.0216.

For the compound `Cc1cnc(NC(=O)C2=C(O)c3ccccc3S(=O)(=O)N2C)s1` [Meloxicam], the perinuclear lysosome accumulation turned out to be 0.693. The figure for `O=C(O)COC(=O)Cc1ccccc1Nc1c(Cl)cccc1Cl` [Aceclofenac] is -0.11. With `Cc1cc(CC(=O)O)n(C)c1C(=O)c1ccc(Cl)cc1` [Zomepirac sodium salt] the figure was 0.0515; with `CC1Cc2ccccc2N1NC(=O)c1ccc(Cl)c(S(N)(=O)=O)c1` (centres undefined) [Indapamide], -0.414; with `Nc1ccc(S(=O)(=O)Nc2ccnn2-c2ccccc2)cc1` [Sulfaphenazole], 1.84. Regarding `O=C(NCC(O)CO)c1c(I)c(C(=O)NCC(O)CO)c(I)c(N(CCO)C(=O)CO)c1I` (centres undefined) [Ioversol], the perinuclear lysosome accumulation is 1.35.

For `CO/N=C(\C(=O)N[C@@H]1C(=O)N2C(C(=O)O)=C(COC(N)=O)CS[C@H]12)c1ccco1` [Cefuroxime sodium salt], the perinuclear lysosome accumulation came to 1.27. With `C[C@H](O)C(=O)Nc1c(I)c(C(=O)NC(CO)CO)c(I)c(C(=O)NC(CO)CO)c1I` [Iopamidol], the perinuclear lysosome accumulation is -3.02. For the compound `CC(C)CC(=O)N[C@H](C(=O)N[C@H](C(=O)N[C@@H](CC(C)C)[C@@H](O)CC(=O)N[C@@H](C)C(=O)N[C@@H](CC(C)C)[C@@H](O)CC(=O)O)C(C)C)C(C)C` [Pepstatin A] (Isovaleryl-VV[Sta]A[Sta]-OH), the perinuclear lysosome accumulation amounted to 0.814.

For the origin of these results see the supplement of paper PMC8090911.
